The results in this text go back to paper PMC12058022, “Promiscuous structural cross-compatibilities between major shell components of Klebsiella pneumoniae bacterial microcompartments” (PLOS One, 2025).

The target in assay [1] is PduJ, GFP10 or GFP11 fusion (tGFP screen) (Klebsiella pneumoniae (strain 342)) (UniProt A6TDD7). The assay is described as follows: split reporter; tripartite GFP (tGFP): one BMC-H fused to GFP10 and one to GFP11, co-expressed with GFP1-9 in E. coli T7 express, LB, 10 uM IPTG; Fmax as percent of RMM/RMM (C/C); up to 8 tag configurations a pair.
Assay [2] deals with CcmK3 from Syn6803, GFP10 or GFP11 fusion (Synechocystis sp. PCC 6803) (UniProt P73406). Described as above.

Results are given in words; binding and its absence hold for the method and conditions named. Binding seen in cells or lysates may run through a third protein. Some entries that bind do so weakly or less than the wild type. Where a sequence is shown, tags or fusion partners need not be part of it.

B1: PduJ, GFP10 or GFP11 fusion (tGFP screen) (protein, UniProt A6TDD7 1-91)
chain: MNNALGLVETKGLVGAIEAADAMVKSANVQLIGYEKIGSGLITVMVRGDVGAVKAAVDAGSAAASVVGEVKSSHVIPRPHSDVEAILPKSV
Consider B1, for which the binding entry in assay [1] is on record as “binds”.

B2: CcmK3 from Syn6803, GFP10 or GFP11 fusion (protein, UniProt P73406 1-103)
chain: MPQAVGVIQTLGFPSVLAAADAMLKGGRVTLVYYDLAERGNFVVAIRGPVSEVNLSMKMGLAAVNESVMGGEIVSHYIVPNPPENVLAVLPVEYTEKVARFRT
Regarding B2, the binding result in assay [2] is reported as “no binding”.
